These results are taken from patent US10443018B2, “Phenyl based compounds substituted with aldehyde moieties and their use in perfumery” (GIVAUDAN SA, priority 2014, dated 2019).

SMILES strings stand for the structures.

This data set in a line: Odour description.
For `Cc1cc(CC(C)C)ccc1C=O` [4-Isobutyl-2-methylbenzaldehyde, 4-isobutyl-2-methylbenzaldehyde], the Odour description result is “weak, green aromatic, thyme origanum, resinous, slightly isobutyl benzoate”. As for `Cc1ccc(C=O)c(CC(C)C)c1` [2-Isobutyl-4-methylbenzaldehyde, 2-isobutyl-4-methylbenzaldehyde], the Odour description entry is reported as “green leathery, spicy saffron”. For `Cc1cc(CCC=O)cc(CC(C)C)c1` [Compound 1, 3-(3-Isobutyl-5-methylphenyl)propanal] the value was “green aldehydic, citrus juicy orange”. In the case of `Cc1ccc(CCC=O)c(CC(C)C)c1` [Compound 7, 3-(2-isobutyl-4-methylphenyl)propanal], the Odour description entry is “green floral, animalic costus”. For `CCOC(=O)CCc1cc(C)cc(CC(C)C)c1` [Compound 5, ethyl 3-(3-isobutyl-5-methylphenyl)propanoate] the value was “sweet, fruity, candy”.
